Laboratory results reported in the supplement of paper PMC10849652.
The other results are listed elsewhere or left out. Residues, ends and D or L forms follow the SMILES beside them. *: point of attachment. Cbz = O=C(OCc1ccccc1)*

The chains behind the UniProt entries cited, without tags or fusion partners. Where a name states a change or a piece, a line headed by the entry shows the natural chain unless it says otherwise.
UniProt P52294, whole entry, looked up: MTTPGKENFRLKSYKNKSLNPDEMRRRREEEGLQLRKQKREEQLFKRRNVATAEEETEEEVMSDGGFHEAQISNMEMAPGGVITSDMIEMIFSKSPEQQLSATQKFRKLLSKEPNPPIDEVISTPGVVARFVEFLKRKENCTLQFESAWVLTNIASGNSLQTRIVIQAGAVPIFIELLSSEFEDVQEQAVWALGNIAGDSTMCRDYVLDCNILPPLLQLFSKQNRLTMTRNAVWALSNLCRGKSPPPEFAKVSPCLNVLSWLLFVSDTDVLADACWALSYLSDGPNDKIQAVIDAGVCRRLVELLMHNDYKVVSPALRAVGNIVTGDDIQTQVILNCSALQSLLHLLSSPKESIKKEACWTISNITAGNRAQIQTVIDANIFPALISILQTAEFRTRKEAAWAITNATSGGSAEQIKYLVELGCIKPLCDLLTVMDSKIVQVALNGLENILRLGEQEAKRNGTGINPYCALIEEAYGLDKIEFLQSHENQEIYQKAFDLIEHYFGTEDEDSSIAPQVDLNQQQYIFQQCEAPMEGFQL
UniProt O15554, whole entry, looked up: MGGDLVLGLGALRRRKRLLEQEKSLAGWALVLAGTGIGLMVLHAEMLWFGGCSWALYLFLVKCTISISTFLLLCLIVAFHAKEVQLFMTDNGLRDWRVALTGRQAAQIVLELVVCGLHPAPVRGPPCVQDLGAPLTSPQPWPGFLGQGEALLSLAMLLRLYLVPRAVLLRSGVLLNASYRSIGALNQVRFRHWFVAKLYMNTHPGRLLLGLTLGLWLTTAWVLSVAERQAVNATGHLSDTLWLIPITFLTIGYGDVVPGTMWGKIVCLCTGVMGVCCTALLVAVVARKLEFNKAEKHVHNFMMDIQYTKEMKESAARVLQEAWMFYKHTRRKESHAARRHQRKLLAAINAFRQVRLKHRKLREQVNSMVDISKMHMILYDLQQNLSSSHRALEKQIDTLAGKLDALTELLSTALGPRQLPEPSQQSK
UniProt Q99661: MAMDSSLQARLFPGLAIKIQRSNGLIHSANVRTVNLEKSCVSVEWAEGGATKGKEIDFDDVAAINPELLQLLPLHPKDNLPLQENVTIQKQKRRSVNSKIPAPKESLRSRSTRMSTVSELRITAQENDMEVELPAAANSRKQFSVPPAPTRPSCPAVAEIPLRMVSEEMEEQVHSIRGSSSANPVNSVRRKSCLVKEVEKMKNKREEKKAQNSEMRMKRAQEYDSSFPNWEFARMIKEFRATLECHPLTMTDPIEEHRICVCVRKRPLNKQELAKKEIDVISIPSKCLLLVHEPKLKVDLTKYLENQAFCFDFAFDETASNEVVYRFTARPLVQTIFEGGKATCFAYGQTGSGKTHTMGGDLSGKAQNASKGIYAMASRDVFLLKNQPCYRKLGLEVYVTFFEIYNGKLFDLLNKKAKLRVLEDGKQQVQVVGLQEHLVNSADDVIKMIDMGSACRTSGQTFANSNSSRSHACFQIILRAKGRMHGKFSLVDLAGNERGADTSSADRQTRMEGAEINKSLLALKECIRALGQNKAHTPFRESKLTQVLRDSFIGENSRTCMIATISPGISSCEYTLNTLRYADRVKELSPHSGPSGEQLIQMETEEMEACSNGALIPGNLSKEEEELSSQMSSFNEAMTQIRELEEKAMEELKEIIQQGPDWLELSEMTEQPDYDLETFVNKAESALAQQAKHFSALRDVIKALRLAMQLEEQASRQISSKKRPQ
UniProt Q8IVT5: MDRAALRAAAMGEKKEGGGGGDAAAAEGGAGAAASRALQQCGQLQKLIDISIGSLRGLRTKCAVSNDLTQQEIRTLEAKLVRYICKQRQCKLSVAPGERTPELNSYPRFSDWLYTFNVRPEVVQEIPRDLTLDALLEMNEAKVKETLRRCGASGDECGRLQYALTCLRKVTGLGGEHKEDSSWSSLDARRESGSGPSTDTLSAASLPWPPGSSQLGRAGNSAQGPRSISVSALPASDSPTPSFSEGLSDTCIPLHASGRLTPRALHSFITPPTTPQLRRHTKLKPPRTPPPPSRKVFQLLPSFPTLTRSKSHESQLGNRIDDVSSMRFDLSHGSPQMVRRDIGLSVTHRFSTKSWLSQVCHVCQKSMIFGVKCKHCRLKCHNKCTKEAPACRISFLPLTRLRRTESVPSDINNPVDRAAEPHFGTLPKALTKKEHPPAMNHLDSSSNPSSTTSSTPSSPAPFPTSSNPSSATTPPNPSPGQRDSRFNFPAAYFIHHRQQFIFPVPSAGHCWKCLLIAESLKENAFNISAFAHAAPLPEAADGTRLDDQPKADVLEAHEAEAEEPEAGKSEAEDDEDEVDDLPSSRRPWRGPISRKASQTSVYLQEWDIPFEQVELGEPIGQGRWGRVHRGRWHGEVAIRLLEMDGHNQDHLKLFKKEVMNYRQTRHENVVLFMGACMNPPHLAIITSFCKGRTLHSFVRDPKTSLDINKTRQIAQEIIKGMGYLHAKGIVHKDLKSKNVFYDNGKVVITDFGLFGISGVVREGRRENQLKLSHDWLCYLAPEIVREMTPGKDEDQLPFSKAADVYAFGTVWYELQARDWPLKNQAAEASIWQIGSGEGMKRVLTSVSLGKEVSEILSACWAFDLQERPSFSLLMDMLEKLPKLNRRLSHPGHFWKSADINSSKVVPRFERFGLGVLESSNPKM
UniProt Q9Y2K7: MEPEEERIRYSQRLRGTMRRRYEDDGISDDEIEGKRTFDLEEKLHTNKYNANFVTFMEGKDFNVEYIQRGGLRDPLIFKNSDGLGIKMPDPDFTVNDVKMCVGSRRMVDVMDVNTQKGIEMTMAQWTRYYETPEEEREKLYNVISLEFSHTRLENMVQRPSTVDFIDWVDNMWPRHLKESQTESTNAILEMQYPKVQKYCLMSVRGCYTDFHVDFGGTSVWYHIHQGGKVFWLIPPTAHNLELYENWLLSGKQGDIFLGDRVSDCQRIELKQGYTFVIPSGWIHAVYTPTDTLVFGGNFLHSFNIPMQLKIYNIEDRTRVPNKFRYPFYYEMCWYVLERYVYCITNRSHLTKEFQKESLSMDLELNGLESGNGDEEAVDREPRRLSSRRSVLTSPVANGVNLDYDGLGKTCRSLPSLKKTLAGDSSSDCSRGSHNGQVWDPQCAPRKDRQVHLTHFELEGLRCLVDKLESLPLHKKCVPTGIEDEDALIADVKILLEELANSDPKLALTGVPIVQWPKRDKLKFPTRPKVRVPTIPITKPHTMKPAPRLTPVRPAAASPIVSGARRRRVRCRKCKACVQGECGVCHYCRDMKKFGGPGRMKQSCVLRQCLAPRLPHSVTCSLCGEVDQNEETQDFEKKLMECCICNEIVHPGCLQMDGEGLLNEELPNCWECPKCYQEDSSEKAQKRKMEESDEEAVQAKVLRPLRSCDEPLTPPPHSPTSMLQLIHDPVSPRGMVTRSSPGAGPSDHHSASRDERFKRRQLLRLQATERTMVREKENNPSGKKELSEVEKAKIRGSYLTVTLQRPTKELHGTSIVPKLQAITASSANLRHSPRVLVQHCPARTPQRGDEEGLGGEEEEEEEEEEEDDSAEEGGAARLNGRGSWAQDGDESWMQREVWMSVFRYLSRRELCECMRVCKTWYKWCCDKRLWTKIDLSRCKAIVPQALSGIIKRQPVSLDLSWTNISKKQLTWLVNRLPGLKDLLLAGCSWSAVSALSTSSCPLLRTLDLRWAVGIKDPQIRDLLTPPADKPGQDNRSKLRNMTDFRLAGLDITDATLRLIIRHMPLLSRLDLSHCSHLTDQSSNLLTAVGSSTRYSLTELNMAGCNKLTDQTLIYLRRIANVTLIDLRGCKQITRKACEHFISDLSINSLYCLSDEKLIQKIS
UniProt O95251, whole entry, looked up: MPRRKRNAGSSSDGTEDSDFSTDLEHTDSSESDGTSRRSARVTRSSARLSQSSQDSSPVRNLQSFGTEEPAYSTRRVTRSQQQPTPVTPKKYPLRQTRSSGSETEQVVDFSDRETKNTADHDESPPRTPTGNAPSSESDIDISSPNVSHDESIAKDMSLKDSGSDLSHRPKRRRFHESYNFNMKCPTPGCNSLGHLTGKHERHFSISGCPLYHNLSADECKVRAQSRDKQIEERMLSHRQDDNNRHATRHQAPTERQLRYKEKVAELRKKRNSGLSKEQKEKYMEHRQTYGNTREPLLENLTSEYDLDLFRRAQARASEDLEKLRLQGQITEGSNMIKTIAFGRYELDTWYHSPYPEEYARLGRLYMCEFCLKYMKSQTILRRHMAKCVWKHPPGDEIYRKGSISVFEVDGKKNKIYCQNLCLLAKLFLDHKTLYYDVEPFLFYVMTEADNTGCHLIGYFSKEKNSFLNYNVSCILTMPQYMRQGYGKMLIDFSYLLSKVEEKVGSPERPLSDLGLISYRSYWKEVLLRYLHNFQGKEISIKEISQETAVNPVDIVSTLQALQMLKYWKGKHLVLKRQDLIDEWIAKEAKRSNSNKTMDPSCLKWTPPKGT

Experiments:
Experiment in all cases: log2 fold change, soluble protein after heating vs DMSO (PISA); higher = thermal stabilisation; K562 cells, 10 uM, 30 min; active = over 0.2 and 3.5 SD of the protein, either way, in both replicates (recomputed)
IRAK-1-4 Inhibitor I = compound: C1COCCN1CCN2C3=CC=CC=C3N=C2NC(=O)C4=CC(=CC=C4)[N+](=O)[O-] [IRAK-1-4 Inhibitor I]
In short: (§1)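 Soluble protein was quantified by TMTpro 16plex LC-MS/MS after channel sums were equalised. It was obtained as the supernatant after 21,000xg for 90 min from pooled aliquots of K562 cells (2×10^6 cells/mL, 10 μM compound, 30 min) heated for 3 min across 48°C-58°C and extracted in PBS with 0.5% NP-40 at 4°C. Thermal stability values are relative to control samples and come from duplicates. They are given as log2 fold changes.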

ibrutinib = compound: C=CC(=O)N1CCC[C@@H](n2nc(-c3ccc(Oc4ccccc4)cc3)c3c(N)ncnc32)C1 [ibrutinib]
In short: as §1

[1] = compound: CC(=O)c1cnc2ccc(-c3cc(Cl)c(O)c(Cl)c3)nc2c1N[C@H]1CC[C@H](CN(C)C)CC1
In short: as §1

ralimetinib = compound: CC(C)(C)Cn1c(N)nc2ccc(-c3[nH]c(C(C)(C)C)nc3-c3ccc(F)cc3)nc21 [ralimetinib]
In short: as §1

[2] = compound: CC(C)(O)CC(=O)NCCn1ccc2ncnc(Nc3ccc(Oc4cccc(C(F)(F)F)c4)c(Cl)c3)c21
In short: as §1

[3] = compound: CC(C)C1=C2N=C(C=C(N2N=C1)NCC3=CC=CC=C3)NCCCCCCN
In short: as §1

[4] = compound: CC(C)C[C@@H](C=O)NC(=O)[C@H](CC(C)C)NC(=O)[C@H](CC(C)C)NC(=O)OCc1ccccc1
In short: as §1

pinometostat = compound: CC(C)N(C[C@H]1O[C@@H](n2cnc3c(N)ncnc32)[C@H](O)[C@@H]1O)[C@H]1C[C@@H](CCc2nc3cc(C(C)(C)C)ccc3[nH]2)C1 [pinometostat]
In short: as §1

[5] = compound: CC1=C(C2=C(C=C1)C(=O)C3=CC=CC=C3N2CCCN)C
In short: as §1

[6] = compound: CC1=C(C=C(C=C1)NC(=O)C2=CC(=CC=C2)C(C)(C)C#N)NC3=CC4=C(C=C3)N=CN(C4=O)C
In short: as §1

[7] = compound: CC1=C(C=C(C=C1)NC(=O)C2=CC(=CC=C2)N(C)C)NC(=O)C3=CC=C(C=C3)O
In short: as §1

[8] = compound: CC1=CC=C(C=C1)SC2=C3C=C(SC3=CN=C2)C(=O)N
In short: as §1

[9] = compound: CC1=NC(=CC=C1)C2=C(N=C(N2)C(C)(C)C)C3=CC4=NC=CN=C4C=C3
In short: as §1

Nexturastat A = compound: CCCCN(Cc1ccc(C(=O)NO)cc1)C(=O)Nc1ccccc1 [Nexturastat A]
In short: as §1

vemurafenib = compound: CCCS(=O)(=O)Nc1ccc(F)c(C(=O)c2c[nH]c3ncc(-c4ccc(Cl)cc4)cc23)c1F [vemurafenib]
In short: as §1

[10] = compound: CCCS(=O)(=O)Nc1ccc(F)c(C(=O)c2c[nH]c3ncc(Cl)cc23)c1F
In short: as §1

[11] = compound: CCCc1cc(C)[nH]c(=O)c1CNC(=O)c1cc(-c2ccnc(N3CCN(C)CC3)c2)cc2c1cnn2C(C)C
In short: as §1

givinostat = compound: CCN(CC)Cc1ccc2cc(COC(=O)Nc3ccc(C(=O)NO)cc3)ccc2c1 [givinostat]
In short: as §1

barasertib = compound: CCN(CCCOc1ccc2c(Nc3cc(CC(=O)Nc4cccc(F)c4)[nH]n3)ncnc2c1)CCOP(=O)(O)O [barasertib]
In short: as §1

[12] = compound: CC1=C(C(CC(=O)N1)C2=CC=C(C=C2)C(F)(F)F)C(=O)NC3=C(C=C4C(=C3)C=NN4)F
In short: as §1

Row | Target | log2 fold change (IRAK-1-4 Inhibitor I) | log2 fold change (ibrutinib) | log2 fold change [1] | log2 fold change (ralimetinib) | log2 fold change [2] | log2 fold change [3] | log2 fold change [4] | log2 fold change (pinometostat) | log2 fold change [5] | log2 fold change [6] | log2 fold change [7] | log2 fold change [8] | log2 fold change [9] | log2 fold change (Nexturastat A) | log2 fold change (vemurafenib) | log2 fold change [10] | log2 fold change [11] | log2 fold change (givinostat) | log2 fold change (barasertib) | log2 fold change [12]
1 | KPNA1 (UniProt P52294) | inactive: -0.046 | inactive: -0.073 | inactive: 0.062 | inactive: 0.089 | inactive: -0.022 | inactive: 0.084 | inactive: 0.123 | inactive: 0.071 | active: -0.26 | inactive: -0.034 | inactive: -0.056 | inactive: -0.021 | inactive: -0.041 | inactive: 0.084 | inactive: 0.035 | inactive: 0.026 | inactive: 0.034 | inactive: 0.086 | inactive: 0.012 | 
2 | KIF13B (UniProt Q9NQT8) | inactive: -0.006 | inactive: 0.051 | inactive: -0.013 |  | inactive: -0.086 | inactive: -0.113 |  | inactive: 0.089 | inactive: 0.03 | inactive: -0.046 |  | inactive: 0.12 | inactive: -0.041 | inactive: 0.098 |  | inactive: -0.056 | inactive: 0.035 | inactive: -0.048 | inactive: 0.033 | 
3 | KPNA6 (UniProt O60684) | inactive: -0.046 | inactive: -0.032 | inactive: -0.04 | inactive: 0.077 | inactive: -0.047 | inactive: -0.239 | inactive: 0.087 | inactive: 0.087 | inactive: -0.15 | inactive: -0.06 | inactive: -0.02 | inactive: -0.014 | inactive: -0.063 | inactive: 0.156 | inactive: -0.09 | inactive: 0.078 | inactive: 0.068 | inactive: 0.018 | inactive: 0.047 | 
4 | KCNN4 (UniProt O15554) | inactive: 0.066 | inactive: -0.202 | inactive: -0.085 | inactive: -0.051 |  | inactive: -0.108 | inactive: 0.061 | inactive: 0.096 | inactive: -0.005 | inactive: 0.054 | inactive: 0.078 | inactive: 0.032 | inactive: -0.156 |  | inactive: 0.111 | inactive: 0.133 | inactive: -0.078 | inactive: 0.02 | inactive: -0.142 | inactive: -0.103
5 | KIF2C (UniProt Q99661) | inactive: -0.111 | inactive: -0.033 | inactive: -0.058 | inactive: 0.028 | inactive: -0.069 | inactive: -0.065 | inactive: 0.035 | inactive: 0.031 | inactive: 0.028 | inactive: 0.012 | inactive: -0.038 | inactive: 0.057 | inactive: 0.067 | inactive: 0.02 | inactive: 0.087 | inactive: 0.053 | inactive: 0.03 | inactive: 0.016 | inactive: 0.053 | 
6 | KHDC4 (UniProt Q7Z7F0) | inactive: 0.034 | inactive: 0.025 | inactive: 0.003 | inactive: 0.012 | inactive: -0.201 | inactive: -0.009 | inactive: 0.015 | inactive: -0.001 | inactive: 0.021 | inactive: -0.008 | inactive: -0.055 | inactive: 0.026 | inactive: 0.071 | inactive: 0.068 | inactive: 0.113 | inactive: 0.017 | inactive: 0.038 | inactive: 0.048 | inactive: 0.049 | 
7 | KSR1 (UniProt Q8IVT5) | inactive: -0.07 | inactive: -0.084 | active: -0.807 | inactive: 0.065 | inactive: -0.231 | inactive: -0.085 | inactive: 0.085 | inactive: 0.035 | inactive: 0.044 | inactive: 0.231 | inactive: -0.007 | inactive: 0.112 | inactive: -0.028 | inactive: 0.001 | inactive: 0.046 | inactive: 0.218 | inactive: -0.132 | inactive: 0.106 | inactive: 0.013 | 
8 | KDM2A (UniProt Q9Y2K7) | inactive: -0.021 | inactive: -0.009 |  | inactive: -0.022 | inactive: 0.014 | inactive: -0.137 | inactive: -0.137 | inactive: 0 | inactive: -0.265 | inactive: -0.111 | inactive: 0.029 | inactive: -0.041 | inactive: 0.069 | inactive: -0.198 | inactive: 0.044 | inactive: -0.014 | inactive: -0.028 | inactive: 0.015 | inactive: 0.077 | inactive: 0.149
9 | KAT7 (UniProt O95251) | inactive: 0.059 | inactive: 0.006 | inactive: -0.369 | inactive: 0.217 |  | inactive: 0.1 | inactive: 0.03 | inactive: -0.095 |  | inactive: -0.139 | inactive: -0.101 | inactive: -0.053 | inactive: -0.185 |  | inactive: -0.013 | inactive: 0.088 | inactive: 0.075 | inactive: 0.29 | inactive: -0.01 | inactive: -0.102

As entered above:
For log2 fold change (Nexturastat A), KSR1 (UniProt Q8IVT5) is entered as inactive: 0.001
For log2 fold change [1], KPNA6 (UniProt O60684) is entered as inactive: -0.04
